In patent US9012216B2, “Methods of determining efficacy of cyclodextrin therapy” (Washington University, priority 2008, dated 2015):

Test: Plasma and tissue oxysterols in NPC1-/- null and wild-type mice
Assay type: in vivo
Settings: for Plasma level in NPC1 mice as compared to wild-type mice: ages 4-10 weeks, all time points

Row | SMILES | Plasma level in NPC1 mice as compared to wild-type mice | Level in cerebellar tissue of NPC1 mice (as early as postnatal day 8)
1 | C[C@H](CCCC(C)(C)O)[C@H]1CC[C@H]2[C@@H]3CC=C4C[C@@H](O)CC[C@]4(C)[C@H]3CC[C@]12C [25-HC, 25-hydroxycholesterol] | significant elevations | 
2 | CC(C)CCC[C@@H](C)[C@H]1CC[C@H]2[C@@H]3C[C@@H](O)[C@@]4(O)C[C@@H](O)CC[C@]4(C)[C@H]3CC[C@]12C [triol, cholestane-3β,5α,6β-triol] | significant elevations | elevated
